Article PMC12391449, “Hepatitis C virus NS3 helicase contributes to (−) strand RNA synthesis”
No constants are given. Whether binding was seen depends on the method and setting. In cells and extracts the contact can be indirect. Some results given as binding are weak or reduced against the parent protein; the word gives no strength.

Amino acid sequences for entries named in this document (tags omitted). Residues count along the entry.
HCV non-structural protein 3 (NS3), JFH1 wt (hepatitis C virus, isolate JFH1 (gt2a)) (Q99IB8, residues 1031-1661): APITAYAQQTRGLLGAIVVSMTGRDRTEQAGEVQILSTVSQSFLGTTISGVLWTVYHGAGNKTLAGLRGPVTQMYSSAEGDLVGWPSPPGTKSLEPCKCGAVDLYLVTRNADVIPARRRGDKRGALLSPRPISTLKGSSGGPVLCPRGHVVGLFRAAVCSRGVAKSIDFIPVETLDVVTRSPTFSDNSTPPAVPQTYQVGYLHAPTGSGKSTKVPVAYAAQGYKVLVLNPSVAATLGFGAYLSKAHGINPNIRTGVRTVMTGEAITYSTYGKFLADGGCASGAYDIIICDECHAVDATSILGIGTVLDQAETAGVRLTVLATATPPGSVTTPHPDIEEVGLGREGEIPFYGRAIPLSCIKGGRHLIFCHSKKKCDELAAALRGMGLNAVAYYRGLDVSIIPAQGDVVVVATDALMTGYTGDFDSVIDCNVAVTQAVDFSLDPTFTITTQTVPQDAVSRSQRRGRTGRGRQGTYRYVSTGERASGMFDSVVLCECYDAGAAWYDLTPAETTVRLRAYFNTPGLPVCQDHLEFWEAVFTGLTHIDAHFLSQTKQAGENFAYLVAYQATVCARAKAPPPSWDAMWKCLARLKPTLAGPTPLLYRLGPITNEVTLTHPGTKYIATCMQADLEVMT
HCV non-structural protein 4B (NS4B), JFH1 (Q99IB8, residues 1716-1976): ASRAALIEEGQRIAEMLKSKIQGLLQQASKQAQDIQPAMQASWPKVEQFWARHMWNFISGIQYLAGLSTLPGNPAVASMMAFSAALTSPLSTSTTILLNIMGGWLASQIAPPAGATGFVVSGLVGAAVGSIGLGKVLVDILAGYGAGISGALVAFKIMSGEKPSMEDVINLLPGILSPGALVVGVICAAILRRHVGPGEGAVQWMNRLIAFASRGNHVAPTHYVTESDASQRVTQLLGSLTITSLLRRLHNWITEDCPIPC
HCV non-structural protein 5A (NS5A), JFH1 (Q99IB8, residues 1977-2442): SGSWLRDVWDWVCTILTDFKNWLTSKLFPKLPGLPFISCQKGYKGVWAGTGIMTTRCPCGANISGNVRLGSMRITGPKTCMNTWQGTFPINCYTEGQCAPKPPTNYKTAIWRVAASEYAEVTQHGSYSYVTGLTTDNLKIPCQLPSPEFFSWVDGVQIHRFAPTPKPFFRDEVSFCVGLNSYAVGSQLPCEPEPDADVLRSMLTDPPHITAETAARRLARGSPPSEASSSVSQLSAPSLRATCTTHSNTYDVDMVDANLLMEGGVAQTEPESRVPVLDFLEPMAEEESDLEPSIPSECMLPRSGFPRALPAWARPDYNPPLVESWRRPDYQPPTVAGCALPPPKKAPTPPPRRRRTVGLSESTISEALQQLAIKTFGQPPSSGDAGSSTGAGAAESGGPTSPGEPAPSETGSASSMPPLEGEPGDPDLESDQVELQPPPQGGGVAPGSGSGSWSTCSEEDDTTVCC

Tests used:
[1] = molecular target: HCV non-structural protein 3 (NS3), JFH1 wt (hepatitis C virus, isolate JFH1 (gt2a)) (UniProt Q99IB8); assay: co-IP; NS3-5B expressed transiently in Huh7-Lunet T7 cells; no DSP; lysis in native protein buffer (50 mM Tris-HCl pH 7.5, 150 mM NaCl, 1% NP-40, 1% sodium deoxycholate, 0.1% SDS); NS3 2E3 antibody on protein G dynabeads, overnight at 4 °C; WB
[2] = molecular target: HCV non-structural protein 3 (NS3), JFH1 wt (hepatitis C virus, isolate JFH1 (gt2a)) (UniProt Q99IB8); assay: co-IP; NS3-5B expressed transiently in Huh7-Lunet T7 cells; cells treated with the cell-permeable crosslinker DSP; NS3-IP; NS proteins detected by WB

For “HCV non-structural protein 4B (NS4B), JFH1 (from UniProt Q99IB8 1716-1976)”, the binding [1] was “no binding (condition: in the absence of DSP)” and the binding [2] was “binds”.
“HCV non-structural protein 5A (NS5A), JFH1 (from UniProt Q99IB8 1977-2442)” was tested, and the binding [1] was “no binding (condition: in the absence of DSP)” and the binding [2] was “binds”.
